Laboratory results taken from PubChem BioAssay AID493014 (National Center for Advancing Translational Sciences (NCATS), 2011).
This is one part of the list. Further columns of the screen follow, without active or inactive calls. The list favours compounds with an active or inconclusive main result. Potencies come from curve fits of mixed quality, noted in brackets.

Assay: qHTS Assay to Find Inhibitors of Chronic Active B-Cell Receptor Signaling
Conditions: ABC-DLBCL IkBa-CBG/CBR reporter, luminescence ratio (green luciferase fused to IkBa over red control in TMD8 lymphoma cells), 4 h
How it was run: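 TMD8 ABC-DLBCL cells carrying doxycycline-inducible green luciferase fused to IkappaBalpha plus unfused red luciferase were exposed to compounds (up to 46 uM) for 4 hrs at 37C. Activity came from the overlap-corrected green/red luminescence ratio.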

[1] = measured here: CBR red luminescence, cell number
[2] = measured here: IkBa-CBG green luminescence

CCOC(=O)c1c(C)[nH]c2cc(Br)c(O)cc12
AC50 [1]: 28.2 µM [rising, single point]

CC1CCCCN1CC(=O)Nc1ccc2c(c1)OC(F)(F)O2 (stereo not drawn)
AC50 [1]: 10 µM [rising, partial curve, poor fit]

CCc1ccc2oc(-c3cc(N)ccc3O)nc2c1
AC50 [1]: 0.326 µM [rising, full curve]

O=C(NCc1ccccn1)c1ccc2nc(-c3ccco3)c(-c3ccco3)nc2c1
AC50 [2]: 23.1 µM [rising, single point]

CC(=O)c1ccc(-c2ccc([C@H]3[C@@H]4C=CCC[C@@]4(C)C(=O)N3Cc3ccccc3)c(F)c2)cc1
AC50 [1]: 6.31 µM [falling, single point]

O=c1c2ccccc2nnn1CSc1ccccc1
AC50 [1]: 3.66 µM [rising, single point]

O=C(Nc1ccc(OC(F)F)c(Cl)c1)c1cccc(OC(F)F)c1
AC50 [1]: 29.1 µM [falling, single point]

CCOc1ccc(CNc2ccc3c(c2)ncn3C)cc1
AC50 [1]: 6.51 µM [rising, full curve, poor fit]

CC(NC(=O)c1cc(Sc2ccc(F)cc2F)nc2ccccc12)c1ccccc1 (stereo not drawn)
AC50 [1]: 12.6 µM [falling, single point]

COC(=O)c1ccc(COc2ccc(-c3nnn(CC(N)=O)n3)cc2)cc1
AC50 [1]: 0.794 µM [falling, full curve]

Cc1ccc(C)c(N2CCN(CCCNC(=O)Nc3cc(Cl)ccc3C)CC2)c1
AC50 [1]: 6.31 µM [rising, partial curve, poor fit]

CN(CC(=O)N1CCN(c2ccccn2)CC1)S(=O)(=O)c1ccc(Br)cc1
AC50 [1]: 14.1 µM [rising, single point]

Cc1nn(-c2ccccc2)c(Cl)c1/C=C(\C#N)C(=O)NC(C)C
AC50 [1]: 9.2 µM [falling, partial curve, poor fit]

COc1ccccc1C(=O)OCc1c(-c2ccccc2)ncc2ccccc12
AC50 [1]: 23.1 µM [falling, single point]

Cc1cc(=O)oc(C)c1C(=O)OCC(=O)c1ccc(Cl)cc1
AC50 [1]: 17.8 µM [rising, single point]

CCc1nnc(NC(=O)C2(C)COC(c3ccc(OC)cc3)OC2)s1 (stereo not drawn)
AC50 [1]: 0.891 µM [rising, full curve]

COc1cc(CNc2ccccc2)c([N+](=O)[O-])cc1OC
AC50 [1]: 14.1 µM [rising, single point]

O=C1c2ccccc2NC(c2ccc(F)cc2)N1Cc1ccccc1 (stereo not drawn)
AC50 [1]: 35.5 µM [falling, single point]

O=C(NCCc1ccccn1)C1CCCN(S(=O)(=O)Cc2ccccc2)C1 (stereo not drawn)
AC50 [1]: 3.26 µM [falling, single point]

O=C1c2ccccc2C2=Nc3ccccc3SC(c3ccc(Cl)cc3)C12 (stereo not drawn)
AC50 [2]: 14.6 µM [rising, partial curve, poor fit]

COc1cnc(-c2ccccn2)nc1Oc1ccc(C(C)(C)C)cc1
AC50 [1]: 10 µM [rising, partial curve] | AC50 [2]: 35.5 µM [falling, partial curve, poor fit]

CC1CCCN(Cc2c(O)ccc3c(=O)c(-c4nc5ccccc5s4)c(N)oc23)C1 (stereo not drawn)
AC50 [1]: 2.82 µM [falling, full curve, poor fit]

O=C(NC1CC2CCCC(C1)N2Cc1ccccc1)C1CCCCC1 (stereo not drawn)
AC50 [1]: 7.08 µM [rising, partial curve]

C=CCn1c(COc2ccccc2)nnc1SCC(=O)C(C)(C)C
AC50 [1]: 25.9 µM [falling, partial curve, poor fit]

O=C1N=C(N2CCCC2)S/C1=C\C=C\c1ccccc1
AC50 [1]: 7.94 µM [falling, partial curve, poor fit]

COc1cc2c(cc1OC)C(c1ccc(C)cc1)NC(=O)C2 (stereo not drawn)
AC50 [1]: 35.5 µM [rising, single point]

Cc1oc2nc(SCCCC(=O)NCCCO)nc(N)c2c1C
AC50 [1]: 20.6 µM [falling, single point]

O=C(CSc1ncn[nH]1)Nc1ccc(Br)cc1Br
AC50 [1]: 18.4 µM [falling, partial curve]

Cc1ccc(S(=O)(=O)Nc2cc(C(=O)NCCN3CCCC3)ccc2N2CCCCC2)cc1
AC50 [1]: 35.5 µM [falling, single point]

Clc1ccc(-c2nc(-c3cnccn3)no2)cc1
AC50 [1]: 31.6 µM [falling, single point]

O=C(COC(=O)c1n[nH]c2ccccc12)Nc1ccccc1Br
AC50 [1]: 11.6 µM [falling, partial curve, poor fit]

CCCCC(=O)Nc1ccc(C(=O)c2ccccc2)cc1
AC50 [1]: 2 µM [rising, partial curve, poor fit]

Cc1ccc(C)c(OCc2nc(-c3cccnc3)no2)c1
AC50 [1]: 12.6 µM [rising, partial curve, poor fit]

Cc1c(CN2CCC(C(=O)Nc3cccc(-c4cccc(Cl)c4)c3)CC2)cnn1C
AC50 [1]: 15.8 µM [falling, single point]

CC(C)c1ccc(NC(=O)c2csnn2)cc1
AC50 [1]: 0.461 µM [rising, partial curve]

O=C(COC(=O)C1CC1)Nc1ccc(N=Nc2ccccc2)cc1
AC50 [1]: 11.6 µM [rising, partial curve, poor fit]

CC(C)(C)OC(=O)NCCc1nnc(S(=O)(=O)Cc2ccc(Cl)cc2Cl)o1
AC50 [1]: 3.55 µM [falling, partial curve, poor fit]

Cc1cc[n+](-c2[nH]c(=O)sc2/C=N/NC([S-])=Nc2ccccc2)cc1C
AC50 [1]: 20.6 µM [rising, single point]

CC1CCc2cc(F)ccc2N1S(=O)(=O)c1ccc(Cl)nc1 (stereo not drawn)
AC50 [1]: 10.3 µM [falling, partial curve, poor fit]

CCN(CC)S(=O)(=O)c1cc(NC(=O)C2CSC3(C)CCC(=O)N23)ccc1C (stereo not drawn)
AC50 [1]: 20.6 µM [rising, single point]

CCCN1C=CC(=C2C(=O)c3ccccc3C2=O)C=C1
AC50 [1]: 3.26 µM [falling, partial curve, poor fit]

O=C(O)c1cc([N+](=O)[O-])cc2c1nnn2O
AC50 [1]: 25.1 µM [rising, single point]

O=C(c1ccco1)[C@@H]1[C@@H]2C(=O)N(c3ccc(Br)cc3)C(=O)[C@@H]2C2c3ccccc3C=CN21 (stereo partly drawn)
AC50 [1]: 20 µM [falling, single point]

Cc1nc(C)c(C(=O)N/N=C/c2c[nH]c3ccccc23)s1
AC50 [1]: 1.84 µM [falling, partial curve, poor fit]

CC(=O)n1c(-c2ccccc2)c(CO)c2ccccc21
AC50 [1]: 8.91 µM [rising, partial curve]

CN(C)n1cnc2ccsc2c1=O
AC50 [1]: 35.5 µM [rising, single point]

Cc1ccc(-n2c(SCC(=O)OC(C)C)nnc2-c2ccco2)cc1
AC50 [1]: 2 µM [rising, full curve, poor fit]

N/C(=N\OC(=O)Cc1cccs1)c1ccccc1
AC50 [1]: 5.62 µM [rising, single point]

O=C(/C=C(/c1ccc(Cl)cc1)n1cncn1)c1ccccc1
AC50 [1]: 3.66 µM [rising, partial curve, poor fit]

Cc1cc(C(=O)Nc2nnc(C3CCCCC3)s2)cs1
AC50 [1]: 0.00517 µM [rising, full curve, poor fit]

COC(=O)c1ccc(COc2cccc3c2OC(C)(C)C3)cc1
AC50 [1]: 12.6 µM [falling, single point]

Cc1[nH][nH]c(=O)c1C(c1ccc(N(C)C)c(Br)c1)c1c(C)[nH][nH]c1=O
AC50 [1]: 35.5 µM [falling, single point]

N#Cc1c(NC(=O)c2ccccc2)sc2c1CCCCC2
AC50 [1]: 8.2 µM [falling, partial curve, poor fit]

O=c1[nH]c(N/N=C/c2ccccc2)nc2ccccc12
AC50 [1]: 5.8 µM [falling, partial curve]

Cn1c(-c2ccc3ccccc3n2)[n+](C)c2ccccc21
AC50 [1]: 31.6 µM [rising, single point]

N#Cc1nc(N2CCCC2)nc(N2CCCC2)n1
AC50 [1]: 12.6 µM [rising, single point] | AC50 [2]: 11.2 µM [falling, partial curve, poor fit]

O=C(NC1=NCCS1)c1sc2cc(Cl)cc(Cl)c2c1Cl
AC50 [1]: 2.91 µM [rising, full curve, poor fit]

CCOC(=O)c1cnc(SC2CCc3ccccc3C2=O)nc1N (stereo not drawn)
AC50 [1]: 5.01 µM [falling, full curve, poor fit]

Cc1cc(NC(=O)C2CC2)ccc1NC(=O)c1cccs1
AC50 [1]: 0.355 µM [rising, full curve, poor fit]

O=C1CSc2nc3ccccc3n21
AC50 [1]: 0.631 µM [falling, full curve, poor fit]

Cc1nc2cc(-c3ccccc3)nn2c(C)c1CCC(=O)N1CCN(c2ccccn2)CC1
AC50 [1]: 2.91 µM [falling, partial curve, poor fit]

Cc1ccc(NC(=O)CSc2nccn(-c3ccc4c(c3)OCCO4)c2=O)cc1
AC50 [1]: 0.259 µM [rising, full curve, poor fit]

COC(=O)c1cccc(Nc2c(-c3ccc(O)c(OC)c3)nc3nc[nH]n23)c1
AC50 [1]: 8.91 µM [rising, partial curve, poor fit]

CCOc1nc(-c2ccccc2)ccc1-c1noc(COC)n1
AC50 [1]: 2.31 µM [rising, single point]

CN(C)CCCN(C(=O)CCS(=O)(=O)c1ccccc1)c1nc2cc3c(cc2s1)OCO3
AC50 [1]: 4.47 µM [falling, partial curve, poor fit] | AC50 [2]: 35.5 µM [rising, single point]
